Measurements as given in patent publication US20150191542A1.
No constants are given. Whether binding was seen depends on the method and setting. Some binding calls cover weakened binding; strength is not graded here. Sequences can lack the tags named with a protein.

The chains behind the UniProt entries cited, without tags or fusion partners. Residues count along the entry.
UniProt P26718, residues 73-216: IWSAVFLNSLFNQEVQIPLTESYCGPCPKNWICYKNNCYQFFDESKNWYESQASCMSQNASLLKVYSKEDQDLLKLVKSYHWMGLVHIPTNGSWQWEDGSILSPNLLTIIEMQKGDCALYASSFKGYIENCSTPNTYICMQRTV

Biological target: NKG2D-Fc (human) (UniProt P26718)
Assay: SPR, 'Binding of MICA*001-BirA to NKG2D-Fc' as titled on the sheet; concentrations and the immobilised partner are not given

binding: binds
B1: MICA*001 extracellular domain recombinant protein (full extracellular domain with a BirA or a Poly-His Tag) (ligand, not shown: small tags and cut ends)
chain: EPHSLRYNLTVLSWDGSVQSGFLTEVHLDGQPFLRCDRQKCRAKPQGQWAEDVLGNKTWDRETRDLTGNGKDLRMTLAHIKDQKEGLHSLQEIRVCEIHEDNSTRSSQHFYYDGELFLSQNLETKEWTMPQSSRAQTLAMNVRNFLKEDAMKTKTHYHAMHADCLQELRRYLKSGVVLRRTVPPMVNVTRSEASEGNITVTCRASGFYPWNITLSWRQDGVSLSHDTQQWGDVLPDGNGTYQTWVATRICQGEEQRFTCYMEHSGNHSTHPVPS
